Test results: PubChem BioAssay AID248 (DTP/NCI, 2004)
The list shows only some results of the screen, not a fair sample: it gathers tests that were run many times, whatever their T/C, doses with no T/C, and many T/C values between a quarter and a half above the control. Further doses and runs are listed elsewhere. T/C is the treated group as % of the vehicle group. Some entries give survivors of the animals treated and no T/C: the source holds a T/C of zero for them, seemingly a mark for toxic or unscored doses. Some doses without a T/C left all or most animals alive at the check, yet need not have been tolerated: the source hardly ever lists a survival T/C far under the control, and the zero likely stands for such cases as well. Counts of survivors are from the toxicity check (mostly the fifth day) where no day follows; animals may have died later. Schedule codes are those of the source, read here as Q, the interval in days (D) or hours (H), X, the number of doses. Some entries were tested several times; the results are listed from low to high. Some schedule codes hold Z or #, which are not explained here. Where survival is the endpoint, this PubChem deposit counts one and a half times the control or more as active, and values a quarter to a half above the control carry no call in these data; other NCI protocols may use other cut-offs. Signs of the kind (2×) count equal records among those shown.

Test system: L1210 leukemia ip in BDF1 mice, survival T/C
Test: NCI In Vivo Anticancer Drug Screen. Data for tumor model L1210 Leukemia (intraperitoneal) in B6D2F1 (BDF1) mice
Settings: T/C endpoint: mean survival time, higher T/C = longer survival
[1] = dose: 400.0 mg/kg/injection, schedule: Q01DX001 (ip), vehicle: Klucel (hydroxypropylcellulose) (HPC)
[2] = dose: 150.0 mg/kg/injection, schedule: Q01DX001 (ip), vehicle: saline
[3] = dose: 300.0 mg/kg/injection, schedule: Q01DX001 (ip), vehicle: saline
[4] = dose: 200.0 mg/kg/injection, schedule: Q01DX009 (ip), vehicle: saline
[5] = dose: 400.0 mg/kg/injection, schedule: Q04DX003 (ip), vehicle: saline
[6] = dose: 200.0 mg/kg/injection, schedule: Q01DX009 (ip), vehicle: saline with Tween-80
[7] = dose: 400.0 mg/kg/injection, schedule: Q01DX009 (ip), vehicle: saline with Tween-80
[8] = dose: 100.0 mg/kg/injection, schedule: Q04DX002 (ip), vehicle: saline with Tween-80
[9] = dose: 200.0 mg/kg/injection, schedule: Q04DX002 (ip), vehicle: saline with Tween-80
[10] = dose: 400.0 mg/kg/injection, schedule: Q04DX002 (ip), vehicle: saline with Tween-80
[11] = dose: 100.0 mg/kg/injection, schedule: Q01DX009 (ip), vehicle: Klucel (hydroxypropylcellulose) (HPC)
[12] = dose: 400.0 mg/kg/injection, schedule: Q04DX003 (ip), vehicle: other
[13] = dose: 150.0 mg/kg/injection, schedule: Q01DX009 (ip), vehicle: Klucel (hydroxypropylcellulose) (HPC)
[14] = dose: 225.0 mg/kg/injection, schedule: Q01DX009 (ip), vehicle: Klucel (hydroxypropylcellulose) (HPC)
[15] = dose: 335.0 mg/kg/injection, schedule: Q01DX009 (ip), vehicle: Klucel (hydroxypropylcellulose) (HPC)
[16] = dose: 400.0 mg/kg/injection, schedule: Q01DX009 (ip), vehicle: Klucel (hydroxypropylcellulose) (HPC)
[17] = dose: 100.0 mg/kg/injection, schedule: Q01DX009 (ip), vehicle: saline
[18] = dose: 400.0 mg/kg/injection, schedule: Q01DX009 (ip), vehicle: saline
[19] = dose: 200.0 mg/kg/injection, schedule: Q04DX003 (ip), vehicle: Klucel (hydroxypropylcellulose) (HPC)
[20] = dose: 400.0 mg/kg/injection, schedule: Q04DX003 (ip), vehicle: Klucel (hydroxypropylcellulose) (HPC)
[21] = dose: 400.0 mg/kg/injection, schedule: Q01DX001 (ip), vehicle: carboxymethylcellulose (CMC)

For `Cc1cc2no[n+]([O-])c2cc1C`, which survivor count [1] is on record?
Its survivor count is 1 of 6.

Which survivor count (dose: 500.0 mg/kg/injection, schedule: Q01DX Z (ip), vehicle: methylcellulose (MC)) does the source give for `NC(=S)N/N=C/c1ccc(O)c(C(=O)O)c1` here?
The survivor count was 6 of 6.

How did the survivor count (dose: 75.0 mg/kg/injection, schedule: Q01DX001 (ip), vehicle: saline) turn out when `C[N+]1(C)C2CCCC1CC(=O)C2` was run?
The survivor count was 0 of 6.

What about the survivor count [2] of the same compound?
The survivor count was 0 of 6.

What about the survivor count [3] of the same compound?
Its survivor count is 0 of 6.

How did the survivor count [4] turn out when `Cc1cc(=O)[nH]c2c1CCC2` was run?
Its survivor count is 3 of 6.

And the survivor count [5]?
Its survivor count is 5 of 6.

How did the survivor count [2] turn out when `CN1CCC(CSC(=O)C(O)(c2ccccc2)C2CCCCC2)C1` (centres undefined) was run?
The survivor count was 1 of 6.

And the survivor count [3]?
Its survivor count is 0 of 6.

Which results are given for `CN(C)c1ccc(N(C)C)nn1`?
survivor count [6]: 0 of 6; survivor count [7]: 0 of 6

Which results are given for `NC(CSS(=O)(=O)O)=NCCCC1CCCCC1`?
survivor count (dose: 25.0 mg/kg/injection, schedule: Q04DX002 (ip), vehicle: saline with Tween-80): 0 of 3; survivor count [8]: 0 of 3; survivor count [9]: 0 of 3; survivor count [10]: 0 of 3

Which results are given for `Clc1ncc(Br)c(Cl)n1`?
survivor count (dose: 50.0 mg/kg/injection, schedule: Q01DX009 (ip), vehicle: Klucel (hydroxypropylcellulose) (HPC)): 3 of 6; survivor count [11]: 2 of 6; survivor count (dose: 200.0 mg/kg/injection, schedule: Q01DX009 (ip), vehicle: Klucel (hydroxypropylcellulose) (HPC)): 1 of 6; survivor count [12]: 2 of 6

`CCCCNC(C)[C@]1(O)Cc2c(O)c3c(c(O)c2[C@@H](OC2CC(N)C(O)C(C)O2)C1)C(=O)c1c(OC)cccc1C3=O` (some centres undefined) was tested. Which survivor count (dose: 12.5 mg/kg/injection, schedule: Q01DX009 (ip), vehicle: water) did it give?
Its survivor count is 6 of 6.

And the survivor count (dose: 25.0 mg/kg/injection, schedule: Q01DX009 (ip), vehicle: water)?
Its survivor count is 5 of 6.

For `CCCCCCC[CH2][Sn]1([CH2]CCCCCCC)[O]OC(c2ccccc2)[O]1` (centres undefined), which survivor count [8] is on record?
The survivor count was 0 of 3.

What about the survivor count [9] of the same compound?
Its survivor count is 0 of 3.

And the survivor count [10]?
The survivor count was 0 of 3.

How did the survivor count (dose: 470.0 mg/kg/injection, schedule: Q01DX009 (ip), vehicle: saline with Tween-80) turn out when `CC(C)CC(O)CC(C)C` was run?
The survivor count was 1 of 6.

With `Cc1cccc(NC(=O)/C=C/c2ccccc2)n1` as the compound, how does the survivor count [13] read?
The survivor count was 1 of 6.

And the survivor count (dose: 200.0 mg/kg/injection, schedule: Q04DX002 (ip), vehicle: Klucel (hydroxypropylcellulose) (HPC))?
Its survivor count is 1 of 3.

And the survivor count [14]?
Its survivor count is 0 of 6.

And the survivor count [15]?
The survivor count was 0 of 6.

And the survivor count (dose: 400.0 mg/kg/injection, schedule: Q04DX002 (ip), vehicle: Klucel (hydroxypropylcellulose) (HPC))?
Its survivor count is 1 of 3.

With `NS(=O)(=O)c1ccc(NC(=O)Nc2ccccc2)cc1` as the compound, how does the survivor count [16] read?
Its survivor count is 2 of 6.

With `O=Cc1ccc(O)c(CN2CCCCC2)c1` as the compound, how does the survivor count (dose: 100.0 mg/kg/injection, schedule: Q04DX003 (ip), vehicle: saline sonified) read?
The survivor count was 0 of 6.

And the survivor count (dose: 200.0 mg/kg/injection, schedule: Q04DX003 (ip), vehicle: saline sonified)?
The survivor count was 0 of 6.

What about the survivor count (dose: 400.0 mg/kg/injection, schedule: Q04DX003 (ip), vehicle: saline sonified) of the same compound?
Its survivor count is 0 of 6.

Which survivor count [17] does the source give for `CCC1CCNCC1` here?
Its survivor count is 2 of 6 and 3 of 6.

And the survivor count [4]?
The survivor count was 0 of 6.

What about the survivor count [18] of the same compound?
The survivor count was 0 of 6.

For `C1=C[P+](c2ccccc2)(c2ccccc2)CC[P+]1(c1ccccc1)c1ccccc1`, which survivor count (dose: 300.0 mg/kg/injection, schedule: Q01DX001 (ip), vehicle: other) is on record?
The survivor count was 0 of 6.

With `N#Cc1cccc(N)c1` as the compound, how does the survivor count (dose: 200.0 mg/kg/injection, schedule: Q01DX001 (ip), vehicle: saline) read?
Its survivor count is 0 of 4.

`CC(=O)Nc1ccc(N=CN(C)C)cc1` was tested. Which survivor count [7] did it give?
Its survivor count is 4 of 6.

`O=c1cc(Nc2ccc(Cl)cc2)[nH]c(=O)[nH]1` was tested. Which survivor count (dose: 200.0 mg/kg/injection, schedule: Q01DX001 (ip), vehicle: gum acacia) did it give?
Its survivor count is 3 of 6.

For `CCCCn1cnc(=S)c2[nH]cnc21`, which T/C [19] is on record?
The T/C was 132 and 136 % of control.

What about the T/C (dose: 300.0 mg/kg/injection, schedule: Q04DX003 (ip), vehicle: Klucel (hydroxypropylcellulose) (HPC)) of the same compound?
The T/C was 144 % of control.

Which survivor count [11] does the source give for `O=C(NC1CCCCC1)Sc1ccc(Cl)cc1` here?
Its survivor count is 3 of 6.

What about the survivor count [13] of the same compound?
The survivor count was 3 of 6.

And the survivor count [19]?
Its survivor count is 1 of 6.

And the survivor count [14]?
The survivor count was 2 of 6.

And the survivor count [15]?
Its survivor count is 0 of 6.

What about the survivor count [20] of the same compound?
Its survivor count is 0 of 6.

How did the survivor count (dose: 100.0 mg/kg/injection, schedule: Q01DX001 (ip), vehicle: saline with Tween-80) turn out when `Cc1cc(OC(=O)Nc2c(C)cccc2C)cc(C)c1Cl` was run?
Its survivor count is 6 of 6.

And the T/C (dose: 100.0 mg/kg/injection, schedule: Q01DX009 (ip), vehicle: saline with Tween-80)?
The T/C was 92 (2×), 93, 100 % of control.

What about the T/C [8] of the same compound?
Its T/C is 90 and 91 % of control.

And the survivor count [8]?
Its survivor count is 3 of 3 and 6 of 6.

What about the survivor count [6] of the same compound?
The survivor count was 2 of 3.

And the T/C [9]?
The T/C was 86 and 100 % of control (2×).

What about the survivor count [9] of the same compound?
Its survivor count is 6 of 6.

And the survivor count [7]?
Its survivor count is 3 of 3.

And the T/C [10]?
Its T/C is 87, 92, 93 % of control.

What about the survivor count [10] of the same compound?
The survivor count was 3 of 3.

How did the survivor count (dose: 400.0 mg/kg/injection, schedule: Q04DX002 (ip), vehicle: DMSO) turn out when `S=P1(c2ccccc2)Nc2ccccc2N1c1ccccc1` (centres undefined) was run?
The survivor count was 1 of 3.

`O=P(N1CC1)(N1CC1)N(CCCCN(Cc1ccccc1)P(=O)(N1CC1)N1CC1)Cc1ccccc1` was tested. Which survivor count (dose: 200.0 mg/kg/injection, schedule: Q01DX001 (ip), vehicle: carboxymethylcellulose (CMC)) did it give?
Its survivor count is 2 of 4.

What about the survivor count [21] of the same compound?
Its survivor count is 0 of 4.

With `COc1ccc(OC(C)=O)c(C=O)c1` as the compound, how does the survivor count [21] read?
The survivor count was 0 of 4.

How did the survivor count (dose: 120.0 mg/kg/injection, schedule: Q01DX Z (ip), vehicle: carboxymethylcellulose (CMC)) turn out when `NC(N)=N/N=C\c1c[nH]c2ccccc12` was run?
The survivor count was 2 of 6.

What does the source list for `CCCCOP(=O)(N1CC1CC)N1CC1CC` (centres undefined)?
survivor count (dose: 25.0 mg/kg/injection, schedule: Q04DX003 (ip), vehicle: other): 6 of 6; survivor count (dose: 50.0 mg/kg/injection, schedule: Q01DX009 (ip), vehicle: other): 3 of 6; survivor count (dose: 100.0 mg/kg/injection, schedule: Q04DX003 (ip), vehicle: other): 0 of 6; survivor count (dose: 200.0 mg/kg/injection, schedule: Q04DX003 (ip), vehicle: other): 2 of 6; survivor count [12]: 0 of 6

For `O=C(NC(=O)C(Cl)Cl)OC1c2ccccc2-c2ccccc21`, which survivor count [16] is on record?
Its survivor count is 3 of 6.

What does the source list for `Cc1ccc(S(=O)(=O)NCl)cc1`?
survivor count (dose: 200.0 mg/kg/injection, schedule: Q04DX003 (ip), vehicle: saline): 1 of 6; survivor count [5]: 0 of 6

With `Cc1ccc(Cl)cc1NC(=O)c1cccc(C(=O)Nc2cc(Cl)ccc2C)c1` as the compound, how does the survivor count [20] read?
Its survivor count is 6 of 6.

For `CC1(C)C2CCC1(C)C(C(=O)C(F)(F)F)C2=O.CC1(C)C2CCC1(C)C(C(=O)C(F)(F)F)C2=O.[Co]` (centres undefined), which survivor count (dose: 400.0 mg/kg/injection, schedule: Q04DX002 (ip), vehicle: saline) is on record?
The survivor count was 1 of 3.

With `CNC(=S)Nc1ncn(C=O)n1` as the compound, how does the survivor count [17] read?
Its survivor count is 6 of 6.

And the survivor count [4]?
The survivor count was 6 of 6.

What about the survivor count [18] of the same compound?
Its survivor count is 0 of 6.

Which results are given for `CCCCC(CCCCCC(CCCC)C1NC(C)Cc2cc(OC)c(OC)cc21)C1NC(C)Cc2cc(OC)c(OC)cc21` (centres undefined)?
survivor count (dose: 200.0 mg/kg/injection, schedule: Q01DX001 (ip), vehicle: Klucel (hydroxypropylcellulose) (HPC)): 2 of 3; survivor count [1]: 0 of 3
